Data as given in PubChem BioAssay AID504791 (Drosophila RNAi Screening Center, 2011).
Purpose: 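Factors in Argonaute-based small RNA production and activity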 (primary screen). Cell system: Drosophila S2-derived reporter cells. Knock-down reagent: long dsRNA against Drosophila genes, about 150-250 ng dsRNA per well (siRNA assay); about 80-120 ng (miRNA assay). Timing: about 5 days (siRNA assay); about 4 days (miRNA assay). Challenge: copper sulfate induction of reporters: 25 µM (siRNA assay); 200 mM stated (miRNA assay), 1-2 days before reading. Measured: 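Per-well ratio of Renilla over firefly light, expressed relative to that plate's average ratio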. Hit rule: 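First-pass picks had plate-scaled ratios over 1.5 for the siRNA assay, over 1.6 for the miRNA assay, or under 0.6; two distinct dsRNAs had to score alike on retest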.
The screen tested about 23,000 reagents; this is a random part of those that have a named target and a result. Over the whole deposit, 199 (0.86%) were called active. 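Plate-scaled ratios behind the calls are not deposited; printed light signals are raw; many rows marked increased or decreased are still called inactive.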 The record does not give: the direction of the score.

| target | dsRNA | stable siRNA reporter change | miRNA reporter change | stable assay Renilla, run 1 (luminescence) | stable assay firefly, run 1 (luminescence) | Call |
| --- | --- | --- | --- | --- | --- | --- |
| Obp57a (GeneID 246670) | DRSC22047 | – | – | 7917 | 4.53e5 | inactive |
| alpha-Man-Ib (GeneID 43436) | DRSC14418 | – | – | 9000 | 7.17e5 | inactive |
| Miga (GeneID 31775) | DRSC17821 | – | – | 5659 | 3.20e5 | inactive |
| CG33477 (GeneID 2768726) | DRSC22934 | – | – | 4780 | 4.58e5 | inactive |
| CG3277 (GeneID 33543) | DRSC00588 | – | – | 6151 | 3.57e5 | inactive |
| isoQC (GeneID 40270) | DRSC11790 | – | – | 7042 | 4.26e5 | inactive |
| CG7120 (GeneID 38954) | DRSC10773 | – | – | 6007 | 4.44e5 | inactive |
| CG1774 (GeneID 43722) | DRSC15258 | – | – | 7087 | 5.16e5 | inactive |
| spn-E (GeneID 41919) | DRSC17064 | – | – | 7612 | 4.72e5 | inactive |
| CG14329 (GeneID 42116) | DRSC14808 | – | – | 5799 | 2.99e5 | inactive |
| Srp19 (GeneID 38815) | DRSC11288 | – | – | 7481 | 5.25e5 | inactive |
| CG9521 (GeneID 32414) | DRSC20196 | – | – | 5507 | 2.84e5 | inactive |
| Dok (GeneID 31667) | DRSC18204 | – | – | 5652 | 3.17e5 | inactive |
| Ranbp16 (GeneID 118436) | DRSC20160 | – | – | 4548 | 3.52e5 | inactive |
| CG3746 (GeneID 37593) | DRSC04412 | – | – | 5843 | 3.33e5 | inactive |
| CG30377 (GeneID 50252) | DRSC06477 | – | – | 8018 | 5.06e5 | inactive |
| CG30377 (GeneID 50252) | DRSC06799 | – | – | 5295 | 2.80e5 | inactive |
| CG5435 (GeneID 34657) | DRSC02860 | – | – | 7308 | 3.76e5 | inactive |
| CG9799 (GeneID 41647) | DRSC16567 | – | – | 7640 | 5.76e5 | inactive |
| ppk14 (GeneID 33887) | DRSC03238 | – | – | 7939 | 5.36e5 | inactive |
| Cdk2 (GeneID 42453) | DRSC16921 | reporter ratio lowered past the hit cutoff | – | 5127 | 3.72e5 | inactive |
| Or7a (GeneID 31750) | DRSC18691 | – | – | 5191 | 3.14e5 | inactive |
| CG33322 (GeneID 2768932) | DRSC03204 | – | – | 6150 | 3.88e5 | inactive |
| CG32829 (GeneID 318235) | DRSC00961 | – | – | 4723 | 4.87e5 | inactive |
| CG32829 (GeneID 318235) | DRSC22805 | – | – | 2799 | 2.88e5 | inactive |
| Mcm6 (GeneID 31603) | DRSC18680 | – | – | 8118 | 5.50e5 | inactive |
| CG6418 (GeneID 39218) | DRSC10633 | – | – | 9490 | 6.96e5 | inactive |
| CG17304 (retired record) (GeneID 41796) | DRSC15222 | – | – | 5967 | 2.68e5 | inactive |
| CG17304 (retired record) (GeneID 41796) | DRSC23250 | – | – | 5315 | 3.45e5 | inactive |
| Atg14 (GeneID 43438) | DRSC14421 | – | – | 7352 | 4.62e5 | inactive |
| CG12857 (GeneID 36642) | DRSC06197 | – | – | 7040 | 3.61e5 | inactive |
| CG17687 (GeneID 39495) | DRSC10279 | – | – | 4867 | 2.55e5 | inactive |
| CG31897 (GeneID 319011) | DRSC01020 | – | – | 4307 | 3.72e5 | inactive |
| SdhC (GeneID 41340) | DRSC16088 | – | – | 5550 | 4.05e5 | inactive |
| CG15545 (GeneID 43658) | DRSC15083 | – | – | 6047 | 2.63e5 | inactive |
| pinta (GeneID 42635) | DRSC14698 | – | – | 8347 | 3.36e5 | inactive |
| eIF3g1 (GeneID 31243) | DRSC18427 | – | reporter ratio lowered past the hit cutoff | 5187 | 3.24e5 | inactive |
| CR11235 (GeneID 10178883) | DRSC20480 | – | – | 5354 | 3.56e5 | inactive |
| Cyp6a23 (GeneID 36661) | DRSC07383 | – | – | 6835 | 3.46e5 | inactive |
| MAPk-Ak2 (GeneID 44573) | DRSC18678 | – | – | 4928 | 3.65e5 | inactive |
| CG10348 (GeneID 35132) | DRSC02043 | – | – | 6711 | 4.70e5 | inactive |
| CG10348 (GeneID 35132) | DRSC21908 | – | – | 8393 | 4.92e5 | inactive |
| CG10348 (GeneID 35132) | DRSC23233 | – | – | 3828 | 2.79e5 | inactive |
| Sr-CI (GeneID 33621) | DRSC00790 | – | – | 3220 | 3.89e5 | inactive |
| Sqor (GeneID 38514) | DRSC08453 | – | – | 7923 | 4.71e5 | inactive |
| GstZ2 (GeneID 41133) | DRSC16479 | – | – | 8104 | 4.16e5 | inactive |
| mge (GeneID 38459) | DRSC08721 | – | – | 6558 | 5.01e5 | inactive |
| Bace (GeneID 34182) | DRSC02197 | – | – | 4615 | 4.86e5 | inactive |
| l(2)k14505 (GeneID 35399) | DRSC03106 | – | – | 30377 | 5.57e5 | inactive |
| Cnep1r2 (GeneID 39204) | DRSC10950 | – | – | 9572 | 5.73e5 | inactive |
| CG31219 (GeneID 42344) | DRSC15140 | – | – | 8330 | 3.32e5 | inactive |
| CG3308 (GeneID 42527) | DRSC15474 | – | – | 9008 | 3.40e5 | inactive |
| Bet5 (GeneID 43590) | DRSC14600 | – | – | 6075 | 4.71e5 | inactive |
| Spn88Eb (GeneID 41829) | DRSC16093 | – | – | 7740 | 4.58e5 | inactive |
| CG14763 (GeneID 35757) | DRSC06497 | – | – | 6706 | 3.53e5 | inactive |
| Atg18a (GeneID 38913) | DRSC10943 | – | – | 7771 | 3.77e5 | inactive |
| mRpS33 (GeneID 41991) | DRSC14239 | reporter ratio lowered past the hit cutoff | – | 5450 | 4.96e5 | inactive |

Only “stable assay Renilla, run 1 (luminescence)”, for 7 of the entries above:
Cdk2 (GeneID 42453) [DRSC16921] = 5127
Or7a (GeneID 31750) [DRSC18691] = 5191
CG33322 (GeneID 2768932) [DRSC03204] = 6150
CG32829 (GeneID 318235) [DRSC00961] = 4723
CG32829 (GeneID 318235) [DRSC22805] = 2799
Mcm6 (GeneID 31603) [DRSC18680] = 8118
CG6418 (GeneID 39218) [DRSC10633] = 9490
